Measured values published in PMC3305320.
No constants are given. Whether binding was seen depends on the method and setting. In cells and extracts the contact can be indirect. Some entries that bind do so weakly or less than the wild type. Sequences can lack the tags named with a protein.

Legend:
[1] = target: T1, GST-LOX-PP ΔM3 (not stated (human or mouse cDNA cloned)) (UniProt P28301); test: pull-down; GST-tagged protein expressed in H1299 cells; lysate in Buffer A (25 mM HEPES-KOH pH 7.2, 150 mM KCl, 2 mM EDTA, 1% Triton X-100) incubated with Glutathione-Sepharose 4B for 2 h at 4°C, washed four times; endogenous bound proteins detected by immunoblot
T1 sequence: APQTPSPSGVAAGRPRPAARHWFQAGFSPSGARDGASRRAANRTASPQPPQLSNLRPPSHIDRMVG

[2] = target: T2, GST-LOX-PP WT (not stated (human or mouse cDNA cloned)) (UniProt P28301); test: as above
T2 sequence: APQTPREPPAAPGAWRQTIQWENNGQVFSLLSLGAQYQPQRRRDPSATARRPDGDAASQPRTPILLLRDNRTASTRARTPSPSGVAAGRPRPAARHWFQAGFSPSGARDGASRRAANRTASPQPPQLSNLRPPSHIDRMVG

c-Raf (from UniProt P04049 1-648) was tested, and the binding [1] was “no binding” and the binding [2] was “binds”.
